The supplement of paper PMC4604168 (melanoma cell lines)
This is one part of the list. Many values rest on one well or one pass, so single values are uncertain.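 Imaging used 1,536-well plates; nuclei positive for cleaved PARP by antibody were divided by total DNA-stained nuclei to yield the apoptosis fraction. Doses for screening kept most cells viable, and cell lines differ markedly in resting and induced cleaved-PARP levels.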

Legend:
Experiment in all cases: cleaved PARP positive nuclei fraction relative to DMSO control; melanoma cells; higher = more apoptosis
Details in all cases: library dose: low library concentration; 72 h
[1] = test system: WM115
[2] = test system: WM1716
[3] = test system: WM1745
[4] = test system: WM3526
[5] = test system: WM3619
[6] = test system: WM451Lu

Row | SMILES | cleaved PARP positive nuclei fraction [1] | cleaved PARP positive nuclei fraction [2] | cleaved PARP positive nuclei fraction [3] | cleaved PARP positive nuclei fraction [4] | cleaved PARP positive nuclei fraction [5] | cleaved PARP positive nuclei fraction [6]
1 | Cn1cncc1[C@@](N)(c1ccc(Cl)cc1)c1ccc2c(c1)c(-c1cccc(Cl)c1)cc(=O)n2C [tipifarnib] + O=C(O)c1ccc(-c2c[nH]c3ncc(-c4ccccc4)cc23)cc1C1CCCC1 [GSK650394] (first compound 0.01 µM, partner dose 0.16 µM) | 109% | 130% | 102% | 41.3% | 108% | 32.9%
2 | C=CCn1c(=O)c2cnc(Nc3ccc(N4CCN(C)CC4)cc3)nc2n1-c1cccc(C(C)(C)O)n1 + COc1cc(N2CCC(N3CCN(C)CC3)CC2)ccc1Nc1ncc(Cl)c(Nc2ccccc2S(=O)(=O)C(C)C)n1 [NVP-TAE684] (first compound 0.02 µM, partner dose 0.08 µM) | 236% | 68.7% | 121% | 33.7% | 127% | 50%
3 | C=CCNC1=C2C[C@@H](C)C[C@H](OC)[C@H](O)[C@@H](C)/C=C(\C)[C@H](OC(N)=O)[C@@H](OC)/C=C\C=C(/C)C(=O)NC(=CC1=O)C2=O [Tanespimycin] + Cn1nnc2c(C(N)=O)ncn2c1=O [temozolomide] (first compound 0.002 µM, partner dose 2 µM) | 169% | 82% | 110% | 104% | 126% | 96.8%
4 | C=CCNC1=C2C[C@@H](C)C[C@H](OC)[C@H](O)[C@@H](C)/C=C(\C)[C@H](OC(N)=O)[C@@H](OC)/C=C\C=C(/C)C(=O)NC(=CC1=O)C2=O [Tanespimycin] + COc1cc(N2CCC(N3CCN(C)CC3)CC2)ccc1Nc1ncc(Cl)c(Nc2ccccc2S(=O)(=O)C(C)C)n1 [NVP-TAE684] (first compound 0.002 µM, partner dose 0.08 µM) | 249% | 206% | 193% | 78.6% | 106% | 77.3%
5 | CC(=O)c1c(C)c2cnc(Nc3ccc(N4CCNCC4)cn3)nc2n(C2CCCC2)c1=O [palbociclib] + COc1cc(N2CCC(N3CCN(C)CC3)CC2)ccc1Nc1ncc(Cl)c(Nc2ccccc2S(=O)(=O)C(C)C)n1 [NVP-TAE684] (first compound 0.04 µM, partner dose 0.08 µM) | 163% | 182% | 122% | 143% | 149% | 112%
6 | CC(=O)c1c(C)c2cnc(Nc3ccc(N4CCNCC4)cn3)nc2n(C2CCCC2)c1=O [palbociclib] + C[C@]1(c2nc3c(C(N)=O)cccc3[nH]2)CCCN1 [Veliparib] (first compound 0.04 µM, partner dose 1.4 µM) | 104% | 111% | 110% | 84.4% | 128% | 106%
7 | Cn1c(Nc2ccc(C(F)(F)F)cc2)nc2cc(Oc3ccnc(-c4ncc(C(F)(F)F)[nH]4)c3)ccc21 + O=S(=O)(c1ccccc1)N(CC(F)(F)F)c1ccc(C(O)(C(F)(F)F)C(F)(F)F)cc1 [T0901317] (first compound 0.08 µM, partner dose 1.4 µM) | 370% | 92% | 185% | 131% | 127% | 85%
8 | Cn1c(Nc2ccc(C(F)(F)F)cc2)nc2cc(Oc3ccnc(-c4ncc(C(F)(F)F)[nH]4)c3)ccc21 + OCCn1cc(-c2cnc3nnn(Cc4ccc5ncccc5c4)c3n2)cn1 [PF04217903] (first compound 0.08 µM, partner dose 1 µM) | 502% | 179% | 116% | 126% | 137% | 106%
9 | COCC[n+]1c2c(n(Cc3cnccn3)c1C)C(=O)c1ccccc1C2=O + O=C1NC(=O)/C(=C/c2ccc(-c3ccc(F)cc3O)o2)S1 [AS252424] (first compound 0.0004 µM, partner dose 1 µM) | 56.8% | 188% | 100% | 74.9% | 71.7% | 121%
10 | C[C@]1(c2nc3c(C(N)=O)cccc3[nH]2)CCCN1 [Veliparib] + C[C@@H]1CCN(C(=O)CC#N)C[C@@H]1N(C)c1ncnc2[nH]ccc12 [CP690550] (first compound 1.4 µM, partner dose 1 µM) | 315% | 159% | 125% | 55.3% | 110% | 29.3%
11 | OCCn1cc(-c2cnc3nnn(Cc4ccc5ncccc5c4)c3n2)cn1 + COc1ccc(COc2ccc(Cc3cnc(N)nc3N)cc2OC)cc1 [GW2580] (first compound 1 µM, partner dose 1 µM) | 136% | 133% | 94.8% | 87.3% | 116% | 120%
12 | Cn1cncc1[C@@](N)(c1ccc(Cl)cc1)c1ccc2c(c1)c(-c1cccc(Cl)c1)cc(=O)n2C [tipifarnib] + Cn1cc(/C=C2\C(=O)Nc3cccnc32)c2ccccc21 [GW441756] (first compound 0.01 µM, partner dose 0.4 µM) | 184% | 180% | 111% | 70% | 184% | 198%
13 | OCCn1cc(-c2cnc3nnn(Cc4ccc5ncccc5c4)c3n2)cn1 + Cn1cncc1[C@@](N)(c1ccc(Cl)cc1)c1ccc2c(c1)c(-c1cccc(Cl)c1)cc(=O)n2C [tipifarnib] (first compound 1 µM, partner dose 0.01 µM) | 35.3% | 87.7% | 102% | 61.3% | 117% | 163%
14 | Cc1ccc(NC(=O)c2cccc(N(C)C)c2)cc1NC(=O)c1ccc(O)cc1 + Cn1cc(/C=C2\C(=O)Nc3cccnc32)c2ccccc21 [GW441756] (first compound 2 µM, partner dose 0.4 µM) | 213% | 21.1% | 118% | 179% | 77% | 108%
15 | C=CCNC1=C2C[C@@H](C)C[C@H](OC)[C@H](O)[C@@H](C)/C=C(\C)[C@H](OC(N)=O)[C@@H](OC)/C=C\C=C(/C)C(=O)NC(=CC1=O)C2=O [Tanespimycin] + c1cc(-c2cnn3cc(-c4ccc(OCCN5CCCCC5)cc4)cnc23)ccn1 [Dorsomorphin] (first compound 0.002 µM, partner dose 0.4 µM) | 112% | 267% | 91.5% | 35.3% | 108% | 24.8%
16 | Nc1cccc2c1CN(C1CCC(=O)NC1=O)C2=O (stereo not given) [lenalidomide] + Oc1cc(-c2nc(-c3ccccc3)[nH]c2-c2ccncc2)ccc1Cl [L779450] (first compound 1 µM, partner dose 0.2 µM) | 80% | 79.9% | 115% | 165% | 97% | 181%
17 | OCCn1cc(-c2cnc3nnn(Cc4ccc5ncccc5c4)c3n2)cn1 + CN(NC(=O)CC(=O)NN(C)C(=S)c1ccccc1)C(=S)c1ccccc1 [STA4783] (first compound 1 µM, partner dose 0.006 µM) | 265% | 119% | 96.5% | 187% | 80.6% | 62.3%
18 | CC(=O)c1c(C)c2cnc(Nc3ccc(N4CCNCC4)cn3)nc2n(C2CCCC2)c1=O [palbociclib] + O=C1NC(=O)/C(=C/c2ccc(-c3ccc(F)cc3O)o2)S1 [AS252424] (first compound 0.04 µM, partner dose 1 µM) | 180% | 59.7% | 120% | 134% | 177% | 50.6%
19 | C=CCn1c(=O)c2cnc(Nc3ccc(N4CCN(C)CC4)cc3)nc2n1-c1cccc(C(C)(C)O)n1 + Cn1cc(/C=C2\C(=O)Nc3cccnc32)c2ccccc21 [GW441756] (first compound 0.02 µM, partner dose 0.4 µM) | 123% | 39.7% | 128% | 40.4% | 99.6% | 125%
20 | Cn1c(Nc2ccc(C(F)(F)F)cc2)nc2cc(Oc3ccnc(-c4ncc(C(F)(F)F)[nH]4)c3)ccc21 + NCC(=O)Nc1ccc(-n2nc(C(F)(F)F)cc2-c2ccc3c(ccc4ccccc43)c2)cc1 [OSU03012] (first compound 0.08 µM, partner dose 1 µM) | 1100% | 171% | 126% | 112% | 127% | 363%
21 | COCC[n+]1c2c(n(Cc3cnccn3)c1C)C(=O)c1ccccc1C2=O + NCC(=O)Nc1ccc(-n2nc(C(F)(F)F)cc2-c2ccc3c(ccc4ccccc43)c2)cc1 [OSU03012] (first compound 0.0004 µM, partner dose 1 µM) | 107% | 145% | 92.6% | 79% | 118% | 95.7%
22 | C#Cc1cccc(Nc2ncnc3cc(OCCOC)c(OCCOC)cc23)c1 [erlotinib] + COc1cc(N2CCC(N3CCN(C)CC3)CC2)ccc1Nc1ncc(Cl)c(Nc2ccccc2S(=O)(=O)C(C)C)n1 [NVP-TAE684] (first compound 0.8 µM, partner dose 0.08 µM) | 50.1% | 64.8% | 139% | 91.7% | 80.4% | 131%
23 | C[C@@H]1CCN(C(=O)CC#N)C[C@@H]1N(C)c1ncnc2[nH]ccc12 + CN(C)S(=O)(=O)c1ccc2c(c1)/C(=C/c1cc3c([nH]1)CCCC3)C(=O)N2 [SU6656] (first compound 1 µM, partner dose 0.4 µM) | 262% | 933% | 105% | 207% | 81.1% | 62.2%
24 | C#Cc1cccc(Nc2ncnc3cc(OCCOC)c(OCCOC)cc23)c1 [erlotinib] + O=C(CCCCCCC(=O)Nc1ccccc1)NO [vorinostat] (first compound 0.8 µM, partner dose 0.08 µM) | 88.2% | 103% | 114% | 79% | 120% | 111%
25 | CO[C@@H]1[C@H](N(C)C(=O)c2ccccc2)C[C@H]2O[C@]1(C)n1c3ccccc3c3c4c(c5c6ccccc6n2c5c31)C(=O)NC4 [Midostaurin] + N#Cc1c(O)c2c(-c3ccc(-c4ccccc4O)cc3)csc2[nH]c1=O [A769662] (first compound 0.08 µM, partner dose 2 µM) | 124% | 113% | 111% | 67.2% | 81.7% | 40.9%

Whole records from above. Order of values: cleaved PARP positive nuclei fraction [1] | cleaved PARP positive nuclei fraction [2] | cleaved PARP positive nuclei fraction [3] | cleaved PARP positive nuclei fraction [4] | cleaved PARP positive nuclei fraction [5] | cleaved PARP positive nuclei fraction [6]
Cn1c(Nc2ccc(C(F)(F)F)cc2)nc2cc(Oc3ccnc(-c4ncc(C(F)(F)F)[nH]4)c3)ccc21 + O=S(=O)(c1ccccc1)N(CC(F)(F)F)c1ccc(C(O)(C(F)(F)F)C(F)(F)F)cc1 [T0901317] (first compound 0.08 µM, partner dose 1.4 µM) as listed: 370% | 92% | 185% | 131% | 127% | 85%
OCCn1cc(-c2cnc3nnn(Cc4ccc5ncccc5c4)c3n2)cn1 + Cn1cncc1[C@@](N)(c1ccc(Cl)cc1)c1ccc2c(c1)c(-c1cccc(Cl)c1)cc(=O)n2C [tipifarnib] (first compound 1 µM, partner dose 0.01 µM) as listed: 35.3% | 87.7% | 102% | 61.3% | 117% | 163%
